Laboratory results taken from article PMC12455589, “Abundant bacterial nucleoid-associated protein H-NS limits plasmid transfer through mechanical modification of DNA”.
Positions count from the first letter of the chain named. Construct, isoform or probe ends are uncertain for at least one entry. For some assays here: Weaker means in comparison with the reference protein, sequence or condition of that experiment. Where a protein sequence is shown, tags need not be part of it. For some assays here: At least one verdict was read from the data and is not stated in words by the source.

Tests used:
H-NS G113C = target: T1, H-NS G113C (UniProt P0ACF8); assay: EMSA; conditions: 10 mM Mg2+; EMSA: 10 mM Tris-HCl pH 7.9, 125 mM KCl, 10 mM MgCl2, 0.1 mM DTT, 2.5% glycerol, 30 min, room temperature; recombinant protein; protein details: His6 (N-terminal); probe letters rebuilt from the primers and the genome
T1 sequence (looked up, limits assumed): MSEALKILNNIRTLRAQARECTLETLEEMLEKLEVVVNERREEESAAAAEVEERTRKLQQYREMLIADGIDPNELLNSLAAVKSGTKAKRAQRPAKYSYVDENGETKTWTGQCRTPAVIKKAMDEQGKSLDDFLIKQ

H-NS = target: T2, H-NS (UniProt P0ACF8); assay: EMSA; conditions: 10 mM Mg2+; EMSA: 10 mM Tris-HCl pH 7.9, 125 mM KCl, 10 mM MgCl2, 0.1 mM DTT, 2.5% glycerol, 30 min, room temperature; recombinant protein; protein details: His6 (N-terminal); probe letters rebuilt from the primers and the genome
T2 sequence (looked up, limits assumed): T1 sequence (looked up, limits assumed) with C113G

Sequence: TTGTTCTCCTTCATATGCTCCGACATTTCTCCTGCATTTCTATACGTCGGCACACTTCCGTTATCGGTAAAAACAAAGAAAAAATACGGCGTAATTAATTCAATAATCACATTCACTGCAAAAATATATTCATTGGTTTAATACAATTAACCTATACATATATTAAGATGTGTTGAATTGTTTAAAGACAATAATGCATGCATTTCAAATCTGCAAGTTATTCGTTTTATTATTAAAGAAACTTTTAGTTATAATAATTACCATGAATTTTATTACATAAAATATTCATACTGTGAATATAAAATCTCATACCGGGAAATTAAAAGAAGATGTACATTGTGCACCTTCCCTACTTAAGTAGGGATAAACCGTTATTGGTCTTATTATCGTCATTGATAACAATCATTCCCGAA (double strand) [motif probe (intact HBS)]
- binding result (H-NS G113C): binds more weakly
- binding result (H-NS): binds
